Measured values taken from the supplement of paper PMC7661543.
Differences between knockout arms are mostly noise.

System: HCC-38
Assay: relative cell number vs DMSO control (72 h) (% of DMSO); higher = less growth inhibition (more cells)
Method: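 QMAP-Seq: a pool of 5 breast cancer cell lines (ZR-75-1, SKBR3, HCC-38, MDA-MB-231, BT-20), each carrying 12 doxycycline-inducible Cas9 sgRNA perturbations (11 knockouts plus non-targeting sgNT), was treated with compounds for 72 h at four 10-fold doses (10 nM-10 uM or 1 nM-1 uM range). Barcodes were amplified and sequenced, and cell number was interpolated from 293T spike-in standard curves. The result is expressed as % of the median of DMSO wells. Two biological replicates.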

CCOC(=O)c1ccc(N2NC(=O)C(=Cc3ccc([N+](=O)[O-])o3)C2=O)cc1 [PYR41]
Details | relative cell number
sgRNA knockout: sgATF3, 10 nM | 84.9
sgRNA knockout: sgATF3, 100 nM | 92.26
sgRNA knockout: sgATF3, 1000 nM | 106
sgRNA knockout: sgATF3, 10000 nM | 92.4
sgRNA knockout: sgATF4, 10 nM | 86.95
sgRNA knockout: sgATF4, 100 nM | 85.2
sgRNA knockout: sgATF4, 1000 nM | 106
sgRNA knockout: sgATF4, 10000 nM | 86.2
sgRNA knockout: sgATF6, 10 nM | 107
sgRNA knockout: sgATF6, 100 nM | 92.8
sgRNA knockout: sgATF6, 1000 nM | 121
sgRNA knockout: sgATF6, 10000 nM | 86
sgRNA knockout: sgATG7, 10 nM | 91.4
sgRNA knockout: sgATG7, 100 nM | 87.3
sgRNA knockout: sgATG7, 1000 nM | 110
sgRNA knockout: sgATG7, 10000 nM | 87.1
sgRNA knockout: sgERN1, 10 nM | 88.4
sgRNA knockout: sgERN1, 100 nM | 82.4
sgRNA knockout: sgERN1, 1000 nM | 97.2
sgRNA knockout: sgERN1, 10000 nM | 83.04
sgRNA knockout: sgHSF1, 10 nM | 92.3
sgRNA knockout: sgHSF1, 100 nM | 85.4
sgRNA knockout: sgHSF1, 1000 nM | 122
sgRNA knockout: sgHSF1, 10000 nM | 97.7
sgRNA knockout: sgHSF2, 10 nM | 85
sgRNA knockout: sgHSF2, 100 nM | 98.7
sgRNA knockout: sgHSF2, 1000 nM | 112.6
sgRNA knockout: sgHSF2, 10000 nM | 103
sgRNA knockout: sgKEAP1, 10 nM | 100
sgRNA knockout: sgKEAP1, 100 nM | 94.3
sgRNA knockout: sgKEAP1, 1000 nM | 115
sgRNA knockout: sgKEAP1, 10000 nM | 86.1
sgRNA knockout: sgNFE2L2, 10 nM | 82.2
sgRNA knockout: sgNFE2L2, 100 nM | 83.6
sgRNA knockout: sgNFE2L2, 1000 nM | 105
sgRNA knockout: sgNFE2L2, 10000 nM | 86.1
sgRNA knockout: sgSLC35F2, 10 nM | 90.8
sgRNA knockout: sgSLC35F2, 100 nM | 84
sgRNA knockout: sgSLC35F2, 1000 nM | 103
sgRNA knockout: sgSLC35F2, 10000 nM | 87.3
sgRNA knockout: sgXBP1, 10 nM | 89.2
sgRNA knockout: sgXBP1, 100 nM | 80
sgRNA knockout: sgXBP1, 1000 nM | 107
sgRNA knockout: sgXBP1, 10000 nM | 87.8

O=C(CCc1ccc(O)cc1)c1c(O)cc(O)cc1O [Phloretin]
Details | relative cell number
sgRNA knockout: sgATF3, 10 nM | 112
sgRNA knockout: sgATF3, 100 nM | 112
sgRNA knockout: sgATF3, 1000 nM | 112
sgRNA knockout: sgATF3, 10000 nM | 109
sgRNA knockout: sgATF4, 10 nM | 112
sgRNA knockout: sgATF4, 100 nM | 103
sgRNA knockout: sgATF4, 1000 nM | 105
sgRNA knockout: sgATF4, 10000 nM | 106
sgRNA knockout: sgATF6, 10 nM | 112
sgRNA knockout: sgATF6, 100 nM | 118.9
sgRNA knockout: sgATF6, 1000 nM | 129
sgRNA knockout: sgATF6, 10000 nM | 110
sgRNA knockout: sgATG7, 10 nM | 111
sgRNA knockout: sgATG7, 100 nM | 105
sgRNA knockout: sgATG7, 1000 nM | 106
sgRNA knockout: sgATG7, 10000 nM | 104
sgRNA knockout: sgERN1, 10 nM | 114
sgRNA knockout: sgERN1, 100 nM | 113
sgRNA knockout: sgERN1, 1000 nM | 111
sgRNA knockout: sgERN1, 10000 nM | 126
sgRNA knockout: sgHSF1, 10 nM | 110
sgRNA knockout: sgHSF1, 100 nM | 131
sgRNA knockout: sgHSF1, 1000 nM | 129
sgRNA knockout: sgHSF1, 10000 nM | 122
sgRNA knockout: sgHSF2, 10 nM | 123
sgRNA knockout: sgHSF2, 100 nM | 106
sgRNA knockout: sgHSF2, 1000 nM | 112.5
sgRNA knockout: sgHSF2, 10000 nM | 124
sgRNA knockout: sgKEAP1, 10 nM | 115
sgRNA knockout: sgKEAP1, 100 nM | 133
sgRNA knockout: sgKEAP1, 1000 nM | 124.7
sgRNA knockout: sgKEAP1, 10000 nM | 121.1
sgRNA knockout: sgNFE2L2, 10 nM | 117
sgRNA knockout: sgNFE2L2, 100 nM | 97.6
sgRNA knockout: sgNFE2L2, 1000 nM | 98.9
sgRNA knockout: sgNFE2L2, 10000 nM | 108
sgRNA knockout: sgSLC35F2, 10 nM | 111
sgRNA knockout: sgSLC35F2, 100 nM | 108
sgRNA knockout: sgSLC35F2, 1000 nM | 102
sgRNA knockout: sgSLC35F2, 10000 nM | 117
sgRNA knockout: sgXBP1, 10 nM | 107
sgRNA knockout: sgXBP1, 100 nM | 114
sgRNA knockout: sgXBP1, 1000 nM | 104
sgRNA knockout: sgXBP1, 10000 nM | 114
